{"source": "PubChem BioAssay AID686938, Drosophila RNAi Screening Center | 2013", "test": "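Fly genes required for calcium entry once internal stores are emptied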 (primary screen)", "cell system": "Drosophila S2R+ cells", "reagent": "long dsRNA against Drosophila genes, about 0.25 µg dsRNA per well, roughly 10,000 cells", "time to read-out": "5 days of knock-down before the calcium assay", "treatment": "thapsigargin (SERCA pump blocker) to empty calcium stores; entry signal taken 4 min after adding it", "measurement": "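Per-well fluo-4 fluorescence in two replicates, unnormalised, measured in resting cells and 4 min after store depletion by the SERCA blocker thapsigargin; ratio of the two present in few wells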", "reading the numbers": "calcium entry signal: higher = stronger calcium signal after store depletion; resting calcium signal: higher = higher resting calcium signal", "units": "calcium entry signal in fluorescence units; resting calcium signal in fluorescence units", "call rule": "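Called when the plate z-score of the entry-to-rest ratio, mean of duplicates, falls below −3; wells with low overall dye signal (Fmax z below −2) or more than five off-targets excluded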", "calls": "active = strongly reduced calcium entry; inactive = no strong reduction", "note": "The deposit covers about 23,000 reagents; below is a random part of those with a known target gene and a result. Of all reagents, 75 (0.33%) were called active. 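Raw plate signals without normalisation; calls rest on plate z-scores that were not deposited; ratio present for only 364 wells.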 No sequences are given here. The record does not give: the dose of the treatment."}
{"gene": "Spag1 (Spag1 axonemal dynein assembly factor)", "PubChem SID": "SID104195123", "calcium entry signal, replicate 1": 2.82e7, "calcium entry signal, replicate 2": 5.05e7, "resting calcium signal, replicate 1": 1.47e7, "resting calcium signal, replicate 2": 2.18e7, "Call": "inactive"}
{"gene": "CG6403", "PubChem SID": "SID104195825", "calcium entry signal, replicate 1": 2.79e7, "calcium entry signal, replicate 2": 4.48e7, "resting calcium signal, replicate 1": 1.47e7, "resting calcium signal, replicate 2": 2.01e7, "Call": "inactive"}
{"gene": "Rpn12 (Regulatory particle non-ATPase 12)", "PubChem SID": "SID104191067", "calcium entry signal, replicate 1": 2.38e7, "calcium entry signal, replicate 2": 2.88e7, "resting calcium signal, replicate 1": 1.63e7, "resting calcium signal, replicate 2": 1.70e7, "Call": "inactive"}
{"gene": "CG8945", "PubChem SID": "SID104199921", "calcium entry signal, replicate 1": 3.74e7, "calcium entry signal, replicate 2": 3.39e7, "resting calcium signal, replicate 1": 2.06e7, "resting calcium signal, replicate 2": 1.58e7, "Call": "inactive"}
{"gene": "CG8945", "PubChem SID": "SID104199922", "calcium entry signal, replicate 1": 3.86e7, "calcium entry signal, replicate 2": 3.40e7, "resting calcium signal, replicate 1": 2.07e7, "resting calcium signal, replicate 2": 1.57e7, "Call": "inactive"}
{"gene": "CG30161", "PubChem SID": "SID104201692", "calcium entry signal, replicate 1": 2.79e7, "calcium entry signal, replicate 2": 4.80e7, "resting calcium signal, replicate 1": 1.37e7, "resting calcium signal, replicate 2": 2.25e7, "Call": "inactive"}
{"gene": "CG13436", "PubChem SID": "SID104186188", "calcium entry signal, replicate 1": 1.99e7, "calcium entry signal, replicate 2": 2.72e7, "resting calcium signal, replicate 1": 1.03e7, "resting calcium signal, replicate 2": 1.21e7, "Call": "inactive"}
{"gene": "Usf", "PubChem SID": "SID104197921", "calcium entry signal, replicate 1": 3.62e7, "calcium entry signal, replicate 2": 4.06e7, "resting calcium signal, replicate 1": 1.79e7, "resting calcium signal, replicate 2": 2.03e7, "Call": "inactive"}
{"gene": "CG32652 (retired record)", "PubChem SID": "SID104198734", "calcium entry signal, replicate 1": 3.02e7, "calcium entry signal, replicate 2": 5.09e7, "resting calcium signal, replicate 1": 1.46e7, "resting calcium signal, replicate 2": 2.91e7, "Call": "inactive"}
{"gene": "CG32652 (retired record)", "PubChem SID": "SID104202059", "calcium entry signal, replicate 1": 3.54e7, "calcium entry signal, replicate 2": 2.84e7, "resting calcium signal, replicate 1": 1.89e7, "resting calcium signal, replicate 2": 1.45e7, "Call": "inactive"}
{"gene": "Syx18 (Syntaxin 18)", "PubChem SID": "SID104194420", "calcium entry signal, replicate 1": 3.73e7, "calcium entry signal, replicate 2": 4.11e7, "resting calcium signal, replicate 1": 1.93e7, "resting calcium signal, replicate 2": 1.97e7, "Call": "inactive"}
{"gene": "mbm (mushroom body miniature)", "PubChem SID": "SID104180111", "calcium entry signal, replicate 1": 3.77e7, "resting calcium signal, replicate 1": 2.02e7, "Call": "inactive"}
{"gene": "a5 (antennal protein 5)", "PubChem SID": "SID104180590", "calcium entry signal, replicate 1": 3.68e7, "calcium entry signal, replicate 2": 3.75e7, "resting calcium signal, replicate 1": 1.74e7, "resting calcium signal, replicate 2": 1.59e7, "Call": "inactive"}
{"gene": "ato (atonal)", "PubChem SID": "SID104196696", "calcium entry signal, replicate 1": 3.55e7, "calcium entry signal, replicate 2": 5.03e7, "resting calcium signal, replicate 1": 1.88e7, "resting calcium signal, replicate 2": 2.32e7, "Call": "inactive"}
{"gene": "SmF (Small ribonucleoprotein particle protein SmF)", "PubChem SID": "SID104187189", "calcium entry signal, replicate 1": 1.60e7, "calcium entry signal, replicate 2": 2.11e7, "resting calcium signal, replicate 1": 1.13e7, "resting calcium signal, replicate 2": 1.31e7, "Call": "inactive"}
{"gene": "Egm (Enigma)", "PubChem SID": "SID104187111", "calcium entry signal, replicate 1": 2.76e7, "calcium entry signal, replicate 2": 3.16e7, "resting calcium signal, replicate 1": 1.33e7, "resting calcium signal, replicate 2": 1.46e7, "Call": "inactive"}
{"gene": "Egm (Enigma)", "PubChem SID": "SID104202219", "calcium entry signal, replicate 1": 1.43e7, "calcium entry signal, replicate 2": 2.50e7, "resting calcium signal, replicate 1": 8.41e6, "resting calcium signal, replicate 2": 1.14e7, "Call": "inactive"}
{"gene": "CG11125", "PubChem SID": "SID104185834", "calcium entry signal, replicate 1": 3.91e7, "calcium entry signal, replicate 2": 4.00e7, "resting calcium signal, replicate 1": 1.92e7, "resting calcium signal, replicate 2": 1.94e7, "Call": "inactive"}
{"gene": "Tsp (Thrombospondin)", "PubChem SID": "SID104181936", "calcium entry signal, replicate 1": 4.03e7, "resting calcium signal, replicate 1": 1.78e7, "Call": "inactive"}
{"gene": "Tsp (Thrombospondin)", "PubChem SID": "SID104181937", "calcium entry signal, replicate 1": 2.97e7, "calcium entry signal, replicate 2": 2.94e7, "resting calcium signal, replicate 1": 1.48e7, "resting calcium signal, replicate 2": 1.45e7, "Call": "inactive"}
{"gene": "boca", "PubChem SID": "SID104186200", "calcium entry signal, replicate 1": 4.85e7, "calcium entry signal, replicate 2": 4.22e7, "resting calcium signal, replicate 1": 2.30e7, "resting calcium signal, replicate 2": 1.97e7, "Call": "inactive"}

3 entries already listed, arranged by “calcium entry signal, replicate 1”, highest first:
{"gene": "mbm (mushroom body miniature)", "PubChem SID": "SID104180111", "calcium entry signal, replicate 1": 3.77e7, "resting calcium signal, replicate 1": 2.02e7, "Call": "inactive"}
{"gene": "a5 (antennal protein 5)", "PubChem SID": "SID104180590", "calcium entry signal, replicate 1": 3.68e7, "calcium entry signal, replicate 2": 3.75e7, "resting calcium signal, replicate 1": 1.74e7, "resting calcium signal, replicate 2": 1.59e7, "Call": "inactive"}
{"gene": "ato (atonal)", "PubChem SID": "SID104196696", "calcium entry signal, replicate 1": 3.55e7, "calcium entry signal, replicate 2": 5.03e7, "resting calcium signal, replicate 1": 1.88e7, "resting calcium signal, replicate 2": 2.32e7, "Call": "inactive"}
